Experimental data reported in publication PMC12089348.
No constants are given. Whether binding was seen depends on the method and setting. Binding seen in cells or lysates may run through a third protein. A result given as binding can be weak or reduced; the word gives no strength.

Sequences of proteins named here, by UniProt entry; tags and fusion partners are left off. A change or cut given only in a name is not applied to a line headed by its entry.
UniProt P35222: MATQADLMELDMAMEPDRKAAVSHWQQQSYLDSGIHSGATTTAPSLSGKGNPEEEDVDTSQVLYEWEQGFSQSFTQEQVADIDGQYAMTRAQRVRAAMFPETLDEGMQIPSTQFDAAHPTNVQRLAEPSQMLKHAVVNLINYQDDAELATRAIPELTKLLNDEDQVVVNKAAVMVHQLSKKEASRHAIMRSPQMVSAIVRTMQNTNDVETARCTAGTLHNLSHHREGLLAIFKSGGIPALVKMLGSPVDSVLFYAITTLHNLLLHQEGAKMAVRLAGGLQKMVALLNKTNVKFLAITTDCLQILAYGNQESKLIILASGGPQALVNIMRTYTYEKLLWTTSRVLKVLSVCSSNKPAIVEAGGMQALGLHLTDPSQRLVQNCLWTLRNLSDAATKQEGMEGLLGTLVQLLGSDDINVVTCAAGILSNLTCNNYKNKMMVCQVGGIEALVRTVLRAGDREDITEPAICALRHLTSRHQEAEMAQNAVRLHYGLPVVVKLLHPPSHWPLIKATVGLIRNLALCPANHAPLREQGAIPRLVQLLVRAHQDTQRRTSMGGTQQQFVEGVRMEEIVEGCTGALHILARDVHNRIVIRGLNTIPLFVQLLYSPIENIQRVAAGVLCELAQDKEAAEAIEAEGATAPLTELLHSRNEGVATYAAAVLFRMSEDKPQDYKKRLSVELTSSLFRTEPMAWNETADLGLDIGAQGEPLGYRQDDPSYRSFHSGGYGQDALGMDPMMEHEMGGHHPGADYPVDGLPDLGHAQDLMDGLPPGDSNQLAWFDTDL

Experiments:
[1] = biological target: endogenous β-catenin (human (endogenous in HEK293T)) (UniProt P35222); assay: co-IP; lysates of overnight serum-starved HEK293T cells transiently expressing V5-tagged FBXW11; endogenous β-catenin immunoprecipitated with anti-β-catenin antibody cross-linked to Protein G Sepharose (2 h, 4 °C); IP buffer 25 mM Tris-HCl pH 7.4, 1% Triton X-100, 2 mM EDTA, 150 mM NaCl; Western blot
[2] = biological target: Flag-tagged β-catenin^I35T (human) (UniProt P35222); assay: co-IP; lysates of overnight serum-starved HEK293T cells transiently co-expressing V5-tagged FBXW11 and Flag-tagged β-catenin; immunoprecipitated with anti-Flag or anti-V5 antibody cross-linked to Protein G Sepharose (2 h, 4 °C); IP buffer 25 mM Tris-HCl pH 7.4, 1% Triton X-100, 2 mM EDTA, 150 mM NaCl; Western blot
[3] = biological target: Flag-tagged β-catenin^WT (human) (UniProt P35222); assay: as above

- binding [1]: binds
- binding [2]: binds
- binding [3]: binds
Substance: V5-tagged FBXW11^WT (from UniProt E5RGC1)
